# Reference: PubChem BioAssay AID2099 (Broad Institute, 2009)
# Chains of the proteins cited; added tags and fusions are not shown. Lines headed by an entry give the natural chain unless they say otherwise; changes in a name come on top.
# UniProt Q9H3R0: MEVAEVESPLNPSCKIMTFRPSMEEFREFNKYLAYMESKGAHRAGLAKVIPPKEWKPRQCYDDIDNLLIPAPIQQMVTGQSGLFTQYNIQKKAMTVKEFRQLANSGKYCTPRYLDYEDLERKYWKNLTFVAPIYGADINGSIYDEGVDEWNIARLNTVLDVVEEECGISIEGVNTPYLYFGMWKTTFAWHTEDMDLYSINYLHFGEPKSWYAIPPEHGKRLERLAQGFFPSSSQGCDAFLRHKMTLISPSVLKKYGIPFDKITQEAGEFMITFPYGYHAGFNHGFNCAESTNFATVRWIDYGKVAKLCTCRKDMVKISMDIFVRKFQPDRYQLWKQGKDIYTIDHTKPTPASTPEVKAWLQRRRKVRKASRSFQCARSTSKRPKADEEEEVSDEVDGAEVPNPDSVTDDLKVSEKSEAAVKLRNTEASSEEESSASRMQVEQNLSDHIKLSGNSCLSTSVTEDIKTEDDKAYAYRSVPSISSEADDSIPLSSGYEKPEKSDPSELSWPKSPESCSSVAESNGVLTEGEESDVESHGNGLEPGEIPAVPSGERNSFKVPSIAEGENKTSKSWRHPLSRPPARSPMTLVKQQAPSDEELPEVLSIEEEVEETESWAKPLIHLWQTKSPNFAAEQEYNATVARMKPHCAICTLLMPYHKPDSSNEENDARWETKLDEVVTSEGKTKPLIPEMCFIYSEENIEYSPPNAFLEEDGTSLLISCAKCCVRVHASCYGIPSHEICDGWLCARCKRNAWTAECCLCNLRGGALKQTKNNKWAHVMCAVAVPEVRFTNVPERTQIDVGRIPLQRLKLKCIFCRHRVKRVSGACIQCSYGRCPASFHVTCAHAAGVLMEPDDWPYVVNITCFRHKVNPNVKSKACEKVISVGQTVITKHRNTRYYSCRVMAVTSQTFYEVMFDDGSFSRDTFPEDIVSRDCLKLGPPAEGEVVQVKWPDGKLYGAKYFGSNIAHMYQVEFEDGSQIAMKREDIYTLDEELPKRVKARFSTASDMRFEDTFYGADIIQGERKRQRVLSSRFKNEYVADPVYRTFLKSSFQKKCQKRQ
# Hit rate of the full screen: of about 330,000 compounds, about 230 (0.07%) were called active. The shares of active, inactive and inconclusive entries below differ from those in the screen.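 The calls were made as follows: active = more than half of a compound's replicate wells show inhibition beyond 50%, single wells judged on their own value; inconclusive = some, but no more than half, of replicates pass 50% inhibition; inactive = no replicate passes 50% inhibition.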
# Molecular target: Lysine-specific demethylase 4C (Homo sapiens) (UniProt Q9H3R0)
# Assay: inhibitors of GASC-1 histone demethylase, primary screen, biochemical, fluorescence, DELFIA europium (AID 2099);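 also: signal counts dimethyl H3K9 product captured on neutravidin plate; 0% = median of DMSO wells and 100% = 0.3 times that DMSO median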
# Details: GST-JMJD2C(1-420) H3K9me3 demethylation, at 2.35 µM, hits give high values
row,Structure (SMILES),inhibition
1,CC(C)[C@H](NC(=O)N1CC(=O)Nc2ccccc21)C(=O)N[C@H](Cc1ccccc1)C(=O)O,inconclusive: -140%
2,CCCCN1C(=N)N([C@@H](C)CN2CCC[C@H]2CN2C(N)=NC[C@@H]2Cc2ccccc2)C[C@H]1Cc1ccccc1,inactive: -36.4%
3,O=C(N=C1SC2CS(=O)(=O)CC2N1c1ccc(Br)cc1)C1CCCO1 (centres undefined),inconclusive: -114%
4,Cc1cccc(NC(=O)CCc2nc3sc4c(c3c(=O)[nH]2)CCCC4)n1,inconclusive: -201%
5,Cc1cccc(N2CCN(C(c3ccccc3)c3nnnn3C(C)(C)C)CC2)c1C (centres undefined),inconclusive: -75%
6,COc1ccccc1CC(=O)N1CCOCC1,inactive: 1.96%
7,COc1c2ccoc2nc2c(OC)c(OCC(OC(C)=O)C(C)(C)O)ccc12 (centres undefined),inconclusive: -191%
8,NS(=O)(=O)c1ccc(NNC(=O)c2ccccc2)cc1,inconclusive: -61.9%
9,CCc1ccc(C(=O)c2ccccc2C(=O)O)s1,inconclusive: -193%
10,CCc1cccc(NC(=O)c2cnn(-c3ccccc3)c2C)c1,inactive: -11.5%
11,Cc1ccc(NC(=O)CSc2nnc(CNC(=O)c3ccco3)n2C)c(C)c1,inconclusive: -34%
12,COC(=O)c1[nH]c2c(c1C(=O)OC)CCc1ccccc1-2,inconclusive: -52.9%
13,CCCc1cc(=O)oc2cc(C)cc(OCC(=O)N3CCC(C(=O)O)CC3)c12,inconclusive: -70.7%
14,CC(C)n1c(O)c(/C=C2\C=NN=C2c2ccccc2)sc1=S,inconclusive: -34.6%
15,Cc1ccc(C(=O)N2CCN(C)CC2)cc1S(=O)(=O)N1CCOCC1,inconclusive: -53.2%
16,CN1CCc2cccc3c2[C@@H]1Cc1ccc(O)c(O)c1-3,inconclusive: -68.2%
17,CC(C)(C)c1ccc(-n2ncc3c2CCCC3NC(=O)CN2CCCCC2=O)cc1 (centres undefined),inconclusive: -51.3%
18,O=C(CNC(=O)N1CC(=O)Nc2ccccc21)NCc1ccccc1Cl,inconclusive: -93.2%
19,NNC(=O)CSc1ncc(-c2ccccc2)[nH]1,inactive: -7.33%
20,O=C(COc1cccc2ccccc12)N1c2ccccc2CCc2ccccc21,inconclusive: -112%
21,Cc1cc(NC(=O)c2ccc(C)s2)n(-c2nc3ccccc3[nH]2)n1,inactive: 4.67%
22,CCCc1c(C(=O)N/N=C(\C)c2ccc(O)cc2)nnn1-c1nonc1N,inactive: -0.721%
23,Cc1cc(NC(=O)CSc2nnc(-c3ccc(S(=O)(=O)N4CCCC4)cc3)n2C)no1,inconclusive: -163%
24,COC(=O)c1ccccc1NC(=O)CSc1nnc(CNS(=O)(=O)c2ccc(C)cc2)n1C,inconclusive: -57.6%

# Two entries from above, with bars between the fields.
row | Structure (SMILES) | inhibition
20 | O=C(COc1cccc2ccccc12)N1c2ccccc2CCc2ccccc21 | inconclusive: -112%
21 | Cc1cc(NC(=O)c2ccc(C)s2)n(-c2nc3ccccc3[nH]2)n1 | inactive: 4.67%
